The target in assay [1] is T1, mSerRS as bait of the yeast two-hybrid search (M. thermautotrophicus) (UniProt O27194).
T1 sequence: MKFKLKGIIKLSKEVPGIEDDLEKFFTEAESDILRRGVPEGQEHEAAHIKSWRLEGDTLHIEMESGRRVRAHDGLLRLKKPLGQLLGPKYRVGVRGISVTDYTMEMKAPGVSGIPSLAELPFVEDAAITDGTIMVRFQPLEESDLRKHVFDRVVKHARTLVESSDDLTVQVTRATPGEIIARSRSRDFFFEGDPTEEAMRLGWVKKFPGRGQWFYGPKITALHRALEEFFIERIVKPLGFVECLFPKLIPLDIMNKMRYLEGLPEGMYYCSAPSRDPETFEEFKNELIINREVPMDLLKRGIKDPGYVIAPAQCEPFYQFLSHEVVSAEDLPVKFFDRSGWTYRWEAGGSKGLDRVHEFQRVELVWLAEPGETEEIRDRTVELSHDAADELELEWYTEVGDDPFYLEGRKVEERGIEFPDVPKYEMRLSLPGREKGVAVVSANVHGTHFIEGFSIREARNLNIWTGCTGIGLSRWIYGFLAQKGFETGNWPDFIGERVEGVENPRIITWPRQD
The assay is described as follows: two-hybrid; yeast two-hybrid search for proteins that interact with mSerRS; preliminary, data not shown.

Sequences of proteins named here, by UniProt entry; tags and fusion partners are left off.
UniProt O27496: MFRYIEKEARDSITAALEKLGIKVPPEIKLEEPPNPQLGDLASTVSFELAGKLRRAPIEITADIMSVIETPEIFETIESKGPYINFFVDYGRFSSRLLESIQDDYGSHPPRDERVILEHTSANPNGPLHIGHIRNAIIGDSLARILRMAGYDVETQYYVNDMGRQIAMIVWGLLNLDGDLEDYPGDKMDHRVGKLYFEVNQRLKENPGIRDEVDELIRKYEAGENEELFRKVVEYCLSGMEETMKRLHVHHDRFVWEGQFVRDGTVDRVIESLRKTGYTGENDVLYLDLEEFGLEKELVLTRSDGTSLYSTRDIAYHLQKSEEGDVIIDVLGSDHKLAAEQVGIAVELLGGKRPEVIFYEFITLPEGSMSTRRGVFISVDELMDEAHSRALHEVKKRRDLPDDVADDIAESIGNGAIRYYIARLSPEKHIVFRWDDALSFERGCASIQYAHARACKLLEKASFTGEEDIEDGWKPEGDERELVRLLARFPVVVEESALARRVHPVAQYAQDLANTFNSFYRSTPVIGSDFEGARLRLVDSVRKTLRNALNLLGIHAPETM

The target of assay [2] is Methanothermobacter thermautotrophicus methanogenic-type seryl-tRNA synthetase (M. thermautotrophicus) (UniProt O27194). The assay is described as follows: SPR; unpublished observation; mSerRS with EF-G; format not told.
The target is the same in assay [3]. The assay is described as follows: native gel or EMSA; L12 (6 µM) mixed with mSerRS dimer (2-6 µM), 15 min at 37°C in 20 mM Tris-HCl pH 7.0, 50 mM NaCl, 6 mM MgCl2; 9% native polyacrylamide gel, Coomassie; both purified.
In assay [4] the target is Methanothermobacter thermautotrophicus arginyl-tRNA synthetase (M. thermautotrophicus) (UniProt O27496). Briefly: SPR; ArgRS with ribosomal proteins; Ni-NTA surface used to immobilise His-tagged ArgRS, L6 or L12; which was held for which pair is not told; 25°C, Biacore T100; both purified.
Assay [5] has as its target Methanothermobacter thermautotrophicus methanogenic-type seryl-tRNA synthetase (M. thermautotrophicus) (UniProt O27194). The assay is described as follows: cross-linking; 70S ribosomes incubated with mSerRS or ArgRS; EDC; quenched; complexes pelleted; SDS-PAGE and mass spectrometry; both purified.

From publication PMC4005694 come the findings set out here.

Results are given in words; binding and its absence hold for the method and conditions named. Some entries that bind do so weakly or less than the wild type.

B1: ribosomal protein L3 as found in the yeast two-hybrid search (protein, UniProt O26110 1-337)
chain: MARHHQPRKGSVAFSPRKRAARETPRVKSWPQVDEPGLLALAGYKAGMTHVMMVDNQKNSPTEGMEVSTPVTILEVPPLTVMAVRTYEKTSRGLKTLGEVLATETKDDLRRKLTPPADDYDQEAAIEKIRSNMEYVADVRVIVHTNPRLASVPKKKPEVFECGLGGKTPEEKFEYALEILGKDVRASEIFSEGAFVDAIAVTKGKGFQGPVKRWGIRIQYGKAARSSKGRHIGSLGPWTPSRTMWTVPQAGQMGYHRRTEYNKQILKIGDASEADLVNPDGGFVRYGLVRNDYVMIKGSVPGPTKRLVVLRKAIRAAGKQEEAPQINYISTASKQGV
For the molecule B1, the binding result in assay [1] is reported as “binds”.

B2: EF-G used in SPR with mSerRS (unpublished experiment) (protein, UniProt O27131 1-730)
chain: MSRRAKMISKIKELMYQPEYIRNIGIVAHIDHGKTTLSDNLLAGAGMISAELAGDQRFLDFDEQEQARGITIDAANVSMVHSYEGNEYLINLIDTPGHVDFGGDVTRAMRAVDGAVVVVCAVEGIMPQTETVLRQALKENVRPVLFINKVDRLINELKLDASELQERFVKIIANANKLIKNMAPEEFRDKWQVRVEDGSVAFGSAYHNWAINVPIMQETGINFNDIYKYCTEDNQKELAQKVPLHQVLLGMVVEHLPSPAESQAYRVPIIWSGDLESEEGQAMLKTDPEGPLAVMVTDVSIDKHAGEVATGRVYGGAIEKGSEVFLVGSHSKARVQQVGVYMGPERVNTDKVPAGNIVAITGAKNAVAGETICDTGRKIKAFEGLEHISEPVVTVAVEAKNTKDLPKLIEVLRQVGKEDPTVRVEINEETGEHLISGMGELHLEIIAYRINEKGVEIETSEPIVVYRETVAGTAGPVEGKSPNKHNRFYIEIEPVEASVMQAIQEGKIKEGRVKGKEMAKNFIEAGMDKEEARRVWDVYEKNLFINMTRGIQYLDEIKELLMDGFESAMDNGPVAKEKVMGVKIKLMDAKIHEDAVHRGPAQVLPAIRKGIFGAMMSAEPVLLEPIQKVFINVPQDYMGSATREIQNRRGQIVNMTQEGDMVTVESTVPVAEMFGFAGDIRSATEGRCLWSTENAGFERLPNELQHTITREVRTRKGLSPEPYRADHYLG
As to B2, in assay [2], the binding result is “binds”.

B3: recombinant ribosomal protein L12 of M. thermautotrophicus (protein, UniProt P05394 1-101)
chain: MEYIYAAMLLHTTGKEINEENVKSVLEAAGAEVDDARVKALIAALEDVDIEEAMETTAVAAAPAAAAAPAAAEEAEEEAEEEEEEEEAEEEAAAGLGALFG
B3: the binding result in assay [3] and in assay [4] was “binds” in each case.

B4: ribosomal protein L12p (P1 homologue) of M. thermautotrophicus, as it stands in the ribosome (protein, UniProt P05394 1-101)
chain: B3 chain
On to B4, for which the binding result in assay [5] is “binds”.
